# Laboratory results: PubChem BioAssay AID1259424 (University of Nebraska Medical Center, 2018)
# Test: 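Rank knockdowns across the genome by resemblance to the KSR1 depletion profile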 (primary screen)
# Cell system: human HCT116 colon cancer cells
# Knock-down reagent: siRNA pool against human genes, 50 nM
# Detection: 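Log2 levels of six mRNAs (branched-DNA multiplex), adjusted by two reference genes and the non-targeting median, then scored against the average KSR1 knockdown pattern as Pearson r and euclidean distance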
# Reading the numbers: mean correlation with KSR1 profile: higher = expression change more like KSR1 knockdown; mean distance from KSR1 profile: higher = expression change less like KSR1 knockdown
# This is an unselected part of about 14,000 deposited reagents. 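Higher correlation or smaller distance means closer resemblance to KSR1 loss; control wells, including KSR1 knockdowns, recur on many plates.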 Not all columns of the deposit are shown. No sequences are given here. Not stated in the record: the time to read-out.
Gene,mean correlation with KSR1 profile,mean distance from KSR1 profile
SLC3A2,-0.352,2.15
HOXA11 (homeobox A11),0.728,2.3
FZD6 (frizzled class receptor 6),-0.55,3.59
PCDHA13 (protocadherin alpha 13),0.125,1.71
ERV3-2 (endogenous retrovirus group 3 member 2),0.199,2.56
MCRIP2 (MAPK regulated corepressor interacting protein 2),0.516,1.57
ETNK2 (ethanolamine kinase 2),-0.19,2.61
SLC8A2,-0.122,1.2
OAS1 (2'-5'-oligoadenylate synthetase 1),0.134,1.95
SEC61B (SEC61 translocon subunit beta),-0.148,3.73
FZD9 (frizzled class receptor 9),-0.208,3.5
HARS1 (histidyl-tRNA synthetase 1),0.502,0.827

3 successive records from above, quoted:
Gene,mean correlation with KSR1 profile,mean distance from KSR1 profile
OAS1 (2'-5'-oligoadenylate synthetase 1),0.134,1.95
SEC61B (SEC61 translocon subunit beta),-0.148,3.73
FZD9 (frizzled class receptor 9),-0.208,3.5

Continued.
Gene,mean correlation with KSR1 profile,mean distance from KSR1 profile
ZFP69B (ZFP69 zinc finger protein B),0.604,1.29
FXYD7 (FXYD domain containing ion transport regulator 7),-0.023,2.61
CACNA2D2,-0.126,2.92
"RAB36 (RAB36, member RAS oncogene family)",0.0681,1.73
HOXD13 (homeobox D13),0.115,2.24
GATA1 (GATA binding protein 1),0.608,2.5
RNF44 (ring finger protein 44),-0.0271,2.15
ZNF607 (zinc finger protein 607),0.492,1.28
ENY2 (ENY2 transcription and export complex 2 subunit),0.481,1.79
MYOZ2 (myozenin 2),-0.489,3.39
P2RX7 (purinergic receptor P2X 7),-0.526,2.23
MAN1B1 (mannosidase alpha class 1B member 1),-0.526,1.91
CISD1 (CDGSH iron sulfur domain 1),0.302,1.5
COPG1 (coat protein complex I subunit gamma 1),0.253,2.57
TMPRSS4 (transmembrane serine protease 4),0.0293,3.3
FBXL12 (F-box and leucine rich repeat protein 12),0.241,2.57
AADAT (aminoadipate aminotransferase),-0.467,2.06
LRAT (lecithin retinol acyltransferase),-0.337,3.23
PJA2 (praja ring finger ubiquitin ligase 2),-0.275,3.36
TP53BP1 (tumor protein p53 binding protein 1),-0.363,2.35
GLYAT (glycine-N-acyltransferase),0.0112,1.53
GHRHR (growth hormone releasing hormone receptor),-0.0955,2.6
